This passage reports log2 fold change results from the supplement of paper PMC12819154, “High-throughput peptide-centric local stability assay extends protein–ligand identification to membrane proteins, tissues and bacteria” (Nature Structural & Molecular Biology, 2025).

By UniProt entry, the sequences of proteins in these tests, tags left out. Where a name states a change or a piece, a line headed by the entry shows the natural chain unless it says otherwise.
UniProt Q13064: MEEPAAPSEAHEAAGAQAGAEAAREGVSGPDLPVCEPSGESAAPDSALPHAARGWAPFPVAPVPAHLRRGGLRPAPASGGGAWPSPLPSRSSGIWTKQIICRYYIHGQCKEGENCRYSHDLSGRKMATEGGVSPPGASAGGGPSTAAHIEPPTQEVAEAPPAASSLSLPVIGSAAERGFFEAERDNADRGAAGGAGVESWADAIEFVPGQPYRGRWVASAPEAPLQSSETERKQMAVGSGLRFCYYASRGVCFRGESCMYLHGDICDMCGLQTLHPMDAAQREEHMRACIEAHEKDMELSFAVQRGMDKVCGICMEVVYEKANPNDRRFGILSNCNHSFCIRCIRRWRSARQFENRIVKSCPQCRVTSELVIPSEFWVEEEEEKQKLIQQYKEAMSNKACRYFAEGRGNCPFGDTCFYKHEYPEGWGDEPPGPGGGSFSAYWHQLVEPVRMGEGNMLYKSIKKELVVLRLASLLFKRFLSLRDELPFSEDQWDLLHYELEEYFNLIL
UniProt Q02833: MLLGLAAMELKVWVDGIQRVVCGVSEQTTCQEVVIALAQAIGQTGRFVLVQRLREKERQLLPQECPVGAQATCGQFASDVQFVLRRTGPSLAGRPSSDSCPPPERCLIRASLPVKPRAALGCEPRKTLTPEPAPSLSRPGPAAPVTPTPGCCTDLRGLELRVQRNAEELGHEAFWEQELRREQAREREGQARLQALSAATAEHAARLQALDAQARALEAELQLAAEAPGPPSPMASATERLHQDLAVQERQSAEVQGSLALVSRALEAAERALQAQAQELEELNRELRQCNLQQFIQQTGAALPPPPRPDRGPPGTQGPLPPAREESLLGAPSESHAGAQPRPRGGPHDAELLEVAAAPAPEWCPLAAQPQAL
UniProt Q08623: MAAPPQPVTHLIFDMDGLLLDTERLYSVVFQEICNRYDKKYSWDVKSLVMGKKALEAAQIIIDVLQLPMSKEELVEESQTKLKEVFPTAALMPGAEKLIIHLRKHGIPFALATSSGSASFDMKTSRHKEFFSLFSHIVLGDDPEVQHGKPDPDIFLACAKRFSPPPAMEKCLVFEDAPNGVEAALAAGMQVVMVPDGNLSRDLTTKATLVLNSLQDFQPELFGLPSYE
UniProt Q12974: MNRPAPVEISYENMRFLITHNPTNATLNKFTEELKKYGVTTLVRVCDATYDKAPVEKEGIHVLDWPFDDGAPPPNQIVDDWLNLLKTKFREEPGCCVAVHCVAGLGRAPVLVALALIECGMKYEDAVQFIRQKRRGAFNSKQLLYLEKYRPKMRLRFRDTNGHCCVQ
UniProt Q01082, whole entry: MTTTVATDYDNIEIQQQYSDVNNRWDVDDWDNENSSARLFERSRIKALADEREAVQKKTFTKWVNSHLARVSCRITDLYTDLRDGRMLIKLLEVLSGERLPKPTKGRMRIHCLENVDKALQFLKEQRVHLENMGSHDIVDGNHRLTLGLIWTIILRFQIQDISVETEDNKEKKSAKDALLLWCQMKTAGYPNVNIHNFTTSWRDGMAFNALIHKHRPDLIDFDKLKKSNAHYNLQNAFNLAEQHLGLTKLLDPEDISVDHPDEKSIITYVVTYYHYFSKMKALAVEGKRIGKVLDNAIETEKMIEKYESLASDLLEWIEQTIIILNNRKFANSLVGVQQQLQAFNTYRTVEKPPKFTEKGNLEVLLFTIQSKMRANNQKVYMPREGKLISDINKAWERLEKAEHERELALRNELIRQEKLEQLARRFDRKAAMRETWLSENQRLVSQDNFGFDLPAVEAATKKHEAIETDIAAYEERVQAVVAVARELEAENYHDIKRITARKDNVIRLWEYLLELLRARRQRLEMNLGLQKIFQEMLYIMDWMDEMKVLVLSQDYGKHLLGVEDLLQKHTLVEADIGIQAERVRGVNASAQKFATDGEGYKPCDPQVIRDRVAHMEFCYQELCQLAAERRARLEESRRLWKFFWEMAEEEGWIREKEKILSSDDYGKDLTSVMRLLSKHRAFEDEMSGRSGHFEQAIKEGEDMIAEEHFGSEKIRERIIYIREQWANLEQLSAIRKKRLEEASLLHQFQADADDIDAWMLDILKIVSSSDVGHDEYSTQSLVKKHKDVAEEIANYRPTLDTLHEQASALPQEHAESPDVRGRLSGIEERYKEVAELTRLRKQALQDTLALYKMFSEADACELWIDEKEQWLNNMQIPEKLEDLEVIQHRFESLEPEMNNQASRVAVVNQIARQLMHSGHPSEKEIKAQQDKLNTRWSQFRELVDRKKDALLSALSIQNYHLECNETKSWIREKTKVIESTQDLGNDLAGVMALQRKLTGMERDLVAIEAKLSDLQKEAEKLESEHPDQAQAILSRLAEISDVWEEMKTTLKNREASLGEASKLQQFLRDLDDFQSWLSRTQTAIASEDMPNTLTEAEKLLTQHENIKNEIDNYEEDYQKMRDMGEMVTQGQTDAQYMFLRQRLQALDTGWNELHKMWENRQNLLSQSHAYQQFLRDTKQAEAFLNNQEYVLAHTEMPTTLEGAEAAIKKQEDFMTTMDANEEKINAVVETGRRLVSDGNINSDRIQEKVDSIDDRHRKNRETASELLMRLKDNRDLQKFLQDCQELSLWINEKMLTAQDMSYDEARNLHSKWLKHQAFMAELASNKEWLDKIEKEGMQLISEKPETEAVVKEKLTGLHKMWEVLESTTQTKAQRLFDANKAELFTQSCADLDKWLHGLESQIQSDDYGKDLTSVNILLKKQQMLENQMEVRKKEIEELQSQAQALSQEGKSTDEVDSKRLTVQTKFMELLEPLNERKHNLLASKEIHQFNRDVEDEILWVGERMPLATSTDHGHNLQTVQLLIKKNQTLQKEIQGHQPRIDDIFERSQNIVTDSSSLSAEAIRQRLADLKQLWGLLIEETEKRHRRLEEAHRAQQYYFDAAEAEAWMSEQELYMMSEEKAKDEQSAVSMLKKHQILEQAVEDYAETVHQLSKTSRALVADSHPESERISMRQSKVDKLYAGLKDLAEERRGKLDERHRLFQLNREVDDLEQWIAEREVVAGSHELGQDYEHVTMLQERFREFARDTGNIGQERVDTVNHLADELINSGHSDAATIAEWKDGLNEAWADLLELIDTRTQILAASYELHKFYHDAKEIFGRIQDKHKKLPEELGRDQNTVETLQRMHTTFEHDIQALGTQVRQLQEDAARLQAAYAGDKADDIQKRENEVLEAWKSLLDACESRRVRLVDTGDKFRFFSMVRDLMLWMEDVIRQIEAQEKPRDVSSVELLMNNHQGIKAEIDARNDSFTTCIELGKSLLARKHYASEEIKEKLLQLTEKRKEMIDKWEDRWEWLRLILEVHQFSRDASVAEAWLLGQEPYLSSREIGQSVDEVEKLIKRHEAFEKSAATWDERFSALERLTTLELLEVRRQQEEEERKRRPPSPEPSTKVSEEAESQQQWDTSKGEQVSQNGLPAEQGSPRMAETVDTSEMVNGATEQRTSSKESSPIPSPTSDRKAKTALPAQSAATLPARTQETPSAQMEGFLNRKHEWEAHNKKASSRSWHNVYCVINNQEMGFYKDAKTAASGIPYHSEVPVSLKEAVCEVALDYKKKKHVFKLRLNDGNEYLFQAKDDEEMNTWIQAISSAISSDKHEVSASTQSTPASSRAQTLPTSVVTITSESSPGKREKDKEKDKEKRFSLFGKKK
UniProt Q01130: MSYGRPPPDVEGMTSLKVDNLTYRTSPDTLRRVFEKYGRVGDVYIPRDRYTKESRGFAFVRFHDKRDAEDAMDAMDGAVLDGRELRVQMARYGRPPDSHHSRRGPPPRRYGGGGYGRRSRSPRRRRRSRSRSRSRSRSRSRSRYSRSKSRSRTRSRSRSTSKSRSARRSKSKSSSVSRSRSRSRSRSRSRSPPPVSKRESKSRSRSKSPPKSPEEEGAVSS
UniProt Q04837: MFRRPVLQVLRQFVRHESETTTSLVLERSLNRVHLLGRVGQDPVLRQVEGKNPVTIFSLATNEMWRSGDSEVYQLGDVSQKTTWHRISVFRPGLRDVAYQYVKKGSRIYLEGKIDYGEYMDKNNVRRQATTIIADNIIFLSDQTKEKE
UniProt Q03154: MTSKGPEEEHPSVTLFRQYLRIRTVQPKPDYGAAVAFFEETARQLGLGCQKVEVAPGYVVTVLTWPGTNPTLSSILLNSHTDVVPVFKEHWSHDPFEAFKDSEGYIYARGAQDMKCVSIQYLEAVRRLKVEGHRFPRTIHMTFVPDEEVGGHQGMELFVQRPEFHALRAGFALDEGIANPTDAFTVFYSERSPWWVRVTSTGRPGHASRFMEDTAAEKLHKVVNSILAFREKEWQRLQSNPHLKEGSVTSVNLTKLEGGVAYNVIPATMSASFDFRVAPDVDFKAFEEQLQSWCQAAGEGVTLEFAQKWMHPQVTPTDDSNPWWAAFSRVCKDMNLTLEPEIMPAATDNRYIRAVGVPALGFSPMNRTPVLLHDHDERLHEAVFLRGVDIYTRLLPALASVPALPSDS
UniProt P86791: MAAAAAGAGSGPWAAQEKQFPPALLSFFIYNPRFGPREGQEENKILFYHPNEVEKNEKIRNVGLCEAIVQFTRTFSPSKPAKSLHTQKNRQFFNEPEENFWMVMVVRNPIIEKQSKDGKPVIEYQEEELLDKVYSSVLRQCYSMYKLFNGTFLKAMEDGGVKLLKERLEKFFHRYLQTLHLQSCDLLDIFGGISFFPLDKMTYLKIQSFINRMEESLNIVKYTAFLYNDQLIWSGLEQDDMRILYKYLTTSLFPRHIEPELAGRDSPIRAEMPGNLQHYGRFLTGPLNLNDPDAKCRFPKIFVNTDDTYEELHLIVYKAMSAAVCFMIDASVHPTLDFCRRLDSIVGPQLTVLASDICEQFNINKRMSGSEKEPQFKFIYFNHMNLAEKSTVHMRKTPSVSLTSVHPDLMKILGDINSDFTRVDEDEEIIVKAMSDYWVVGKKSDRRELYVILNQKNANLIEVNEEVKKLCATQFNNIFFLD
UniProt Q12972: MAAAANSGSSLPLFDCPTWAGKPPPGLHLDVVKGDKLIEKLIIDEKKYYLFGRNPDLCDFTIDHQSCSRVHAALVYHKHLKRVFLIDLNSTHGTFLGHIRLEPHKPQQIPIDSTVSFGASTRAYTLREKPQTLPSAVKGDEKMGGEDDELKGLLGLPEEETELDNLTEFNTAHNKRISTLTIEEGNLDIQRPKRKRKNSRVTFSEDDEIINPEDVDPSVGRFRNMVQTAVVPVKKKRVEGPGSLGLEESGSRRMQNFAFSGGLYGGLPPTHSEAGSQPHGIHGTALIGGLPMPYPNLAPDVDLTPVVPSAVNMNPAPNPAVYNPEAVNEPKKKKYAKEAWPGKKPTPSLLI
UniProt Q01469, whole entry: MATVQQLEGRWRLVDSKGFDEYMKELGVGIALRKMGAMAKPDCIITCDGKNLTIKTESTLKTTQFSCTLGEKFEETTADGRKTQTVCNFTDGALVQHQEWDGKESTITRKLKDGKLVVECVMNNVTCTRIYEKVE
UniProt Q07021: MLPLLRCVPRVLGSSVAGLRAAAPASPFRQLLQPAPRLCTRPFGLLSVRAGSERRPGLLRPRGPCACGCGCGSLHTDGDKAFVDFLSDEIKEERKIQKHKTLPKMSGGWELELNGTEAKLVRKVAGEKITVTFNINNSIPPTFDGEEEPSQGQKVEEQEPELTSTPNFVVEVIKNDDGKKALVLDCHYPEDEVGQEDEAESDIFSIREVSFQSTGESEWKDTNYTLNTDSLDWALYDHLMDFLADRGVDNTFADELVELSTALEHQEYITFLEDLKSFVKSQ
UniProt Q09028, whole entry: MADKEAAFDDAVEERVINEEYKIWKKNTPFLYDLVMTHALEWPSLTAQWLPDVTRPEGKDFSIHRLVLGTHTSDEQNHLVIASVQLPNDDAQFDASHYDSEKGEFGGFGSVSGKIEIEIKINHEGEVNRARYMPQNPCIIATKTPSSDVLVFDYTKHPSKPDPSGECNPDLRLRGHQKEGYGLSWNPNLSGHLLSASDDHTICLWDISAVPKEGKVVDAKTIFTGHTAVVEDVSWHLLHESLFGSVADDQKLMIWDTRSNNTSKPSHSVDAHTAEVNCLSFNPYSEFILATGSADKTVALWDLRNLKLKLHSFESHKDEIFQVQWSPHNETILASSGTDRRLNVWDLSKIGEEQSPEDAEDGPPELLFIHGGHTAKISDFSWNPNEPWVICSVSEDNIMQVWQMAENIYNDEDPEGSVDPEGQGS
UniProt Q12834, whole entry: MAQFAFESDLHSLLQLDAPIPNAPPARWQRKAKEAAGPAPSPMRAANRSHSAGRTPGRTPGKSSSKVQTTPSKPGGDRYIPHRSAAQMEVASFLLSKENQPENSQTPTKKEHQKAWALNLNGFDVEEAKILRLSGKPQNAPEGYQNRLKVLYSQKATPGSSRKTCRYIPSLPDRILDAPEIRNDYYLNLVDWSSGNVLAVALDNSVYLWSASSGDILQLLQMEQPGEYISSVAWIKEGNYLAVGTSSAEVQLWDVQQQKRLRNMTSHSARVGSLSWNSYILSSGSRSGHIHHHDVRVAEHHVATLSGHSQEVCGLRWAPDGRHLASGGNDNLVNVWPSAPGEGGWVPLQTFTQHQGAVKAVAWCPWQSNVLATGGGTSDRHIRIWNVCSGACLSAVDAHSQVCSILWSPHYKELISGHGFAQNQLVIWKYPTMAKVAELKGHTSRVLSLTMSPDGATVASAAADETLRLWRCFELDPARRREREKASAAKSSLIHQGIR

The other results are listed elsewhere or left out. Most values lie at the level of the controls, where differences are scatter.

Compound in this experiment: CN[C@@H]1C[C@H]2O[C@@](C)([C@@H]1OC)n1c3ccccc3c3c4c(c5c6ccccc6n2c5c31)C(=O)NC4 [staurosporine]
The experiment can be described thus: log2 fold change of tryptic peptide abundance, ligand vs vehicle (limited proteolysis) (log2 ratio); higher = more trypsin-susceptible (destabilized). The settings on record: ligand concentration: 20 uM; sample: K562 cleared lysate; digestion: 4 min, 22 C (HT-PELSA RT4min, Orbitrap Astral).
For the target “MKRN3 (peptide sequence: GFFEAERDNADR, peptide start residue: 178) (UniProt Q13064)”, the log2 fold change was 0.293.

For the target “ABHD18 (peptide sequence: HFTSSADKLTNLNLVSR, peptide start residue: 246) (UniProt Q0P651)”, the log2 fold change was found to be 0.372.

For “PLOD1 (peptide sequence: SEDYVDIVQGR, peptide start residue: 431) (UniProt Q02809)”, the log2 fold change is -0.111.

For the target “RASSF7 (peptide sequence: LHQDLAVQER, peptide start residue: 241) (UniProt Q02833)”, the log2 fold change was 0.24.

Regarding “UniProt Q03923 (peptide sequence: IIHTGEKPYKCEECGK, peptide start residue: 337)”, the log2 fold change is -0.206.

Turning to “TAF10 (peptide sequence: AGFEASDPR, peptide start residue: 142) (UniProt Q12962)”, the log2 fold change was determined as 0.0791.

“UniProt Q08623 (peptide sequence: EELVEESQTK, peptide start residue: 72)”: the log2 fold change was 0.0278.

Turning to “OGDH (peptide sequence: SWDIFFR, peptide start residue: 75) (UniProt Q02218)”, the log2 fold change was -0.105.

Take “PSME1 (peptide sequence: QPHVGDYR, peptide start residue: 191) (UniProt Q06323)”: the log2 fold change came out at 0.238.

As to “UniProt Q12974 (peptide sequence: YGVTTLVR, peptide start residue: 37)”, the log2 fold change is -0.108.

Consider “SPTBN1 (peptide sequence: EKLTGLHK, peptide start residue: 1353) (UniProt Q01082)”, for which the log2 fold change stood at 0.58.

“TBL3 (peptide sequence: RDPEACEKLEATMLR, peptide start residue: 691) (UniProt Q12788)”: the log2 fold change stood at 0.286.

“MRPL28 (peptide sequence: YPVWLWK, peptide start residue: 6) (UniProt Q13084)”: the log2 fold change is -0.269.

For the target “UniProt Q01130 (peptide sequence: YGRPPDSHHSRR, peptide start residue: 92)”, the log2 fold change amounted to 0.617.

For the target “FMR1 (peptide sequence: TTDGSLQIR, peptide start residue: 573) (UniProt Q06787)”, the log2 fold change came out at 0.171.

With “SSBP1 (peptide sequence: NPVTIFSLATNEMWR, peptide start residue: 52) (UniProt Q04837)”, the log2 fold change was -0.43.

On to “ACY1 (peptide sequence: VVNSILAFR, peptide start residue: 222) (UniProt Q03154)”, for which the log2 fold change was -0.24.

In the case of “PPAT (peptide sequence: SGHCTACLTGK, peptide start residue: 500) (UniProt Q06203)”, the log2 fold change amounted to 0.977.

Turning to “EXOSC9 (peptide sequence: MKETPLSNCERR, peptide start residue: 1) (UniProt Q06265)”, the log2 fold change came out at 0.232.

Regarding “UniProt P86791 (peptide sequence: MSGSEKEPQFK, peptide start residue: 367)”, the log2 fold change stood at 0.494.

On to “PPP1R8 (peptide sequence: RVFLIDLNSTHGTFLGHIR, peptide start residue: 82) (UniProt Q12972)”, for which the log2 fold change was -0.425.

Take “SREBF2 (peptide sequence: AVLLAEAAR, peptide start residue: 1103) (UniProt Q12772)”: the log2 fold change was -0.333.

“FABP5 (peptide sequence: ATVQQLEGR, peptide start residue: 2) (UniProt Q01469)”: the log2 fold change came to 0.323.

In the case of “NFKB2 (peptide sequence: QCSELGICAVSVGPK, peptide start residue: 113) (UniProt Q00653)”, the log2 fold change was -0.743.

In the case of “C1QBP (peptide sequence: AFVDFLSDEIKEERK, peptide start residue: 81) (UniProt Q07021)”, the log2 fold change worked out at 0.164.

Regarding “DNM1 (peptide sequence: CVDMVISELISTVR, peptide start residue: 427) (UniProt Q05193)”, the log2 fold change was -0.81.

Consider “KIF23 (peptide sequence: ENQMYGTNK, peptide start residue: 376) (UniProt Q02241)”, for which the log2 fold change was determined as 0.92.

Regarding “PITPNA (peptide sequence: MLAPEGALNIHEK, peptide start residue: 74) (UniProt Q00169)”, the log2 fold change was -0.206.

Turning to “GRSF1 (peptide sequence: YIEIFPSR, peptide start residue: 318) (UniProt Q12849)”, the log2 fold change is -0.171.

In the case of “GABPA (peptide sequence: TLIGYSAAELNR, peptide start residue: 405) (UniProt Q06546)”, the log2 fold change was -0.196.

Turning to “UniProt Q09028 (peptide sequence: EAAFDDAVEER, peptide start residue: 5)”, the log2 fold change was -0.1.

As for “ZBTB17 (peptide sequence: AFVNVGDLSK, peptide start residue: 594) (UniProt Q13105)”, the log2 fold change was -0.176.

Take “SOS2 (peptide sequence: NNWMAALISLHYR, peptide start residue: 533) (UniProt Q07890)”: the log2 fold change was 0.294.

As to “UniProt Q12952 (peptide sequence: KPKPGPGAPEAK, peptide start residue: 144)”, the log2 fold change was 0.253.

Consider “HSF1 (peptide sequence: RKIPLMLNDSGSAHSMPK, peptide start residue: 207) (UniProt Q00613)”, for which the log2 fold change worked out at 0.445.

Consider “HHEX (peptide sequence: FSNDQTIELEK, peptide start residue: 144) (UniProt Q03014)”, for which the log2 fold change was -0.279.

For the target “LCP2 (peptide sequence: LSQEINKNEER, peptide start residue: 68) (UniProt Q13094)”, the log2 fold change is -0.447.

Take “DHX9 (peptide sequence: KMTPSYEIR, peptide start residue: 16) (UniProt Q08211)”: the log2 fold change stood at 0.228.

As for “IFT88 (peptide sequence: GNTVFANGDYEK, peptide start residue: 491) (UniProt Q13099)”, the log2 fold change was determined as 0.417.

For “CDC20 (peptide sequence: SAAQMEVASFLLSK, peptide start residue: 84) (UniProt Q12834)”, the log2 fold change is 0.359.
